In PubChem BioAssay AID1347076 (National Center for Advancing Translational Sciences (NCATS), 2019):
Values joined by “and” are separate entries in the source; they are usually repeats but may differ in a detail not shown here. Equal values may be shown once. In all, about 400,000 compounds went through this assay and about 13,000 (3.2%) were called active. Inconclusive results, whose numbers are uncertain, are shown with a selection of clear calls. Calls come from the whole dose curve; as a rule, active = well fitted cell-killing curve with a large enough effect; inconclusive = small, poorly fitted or top-dose-only effect, or effect the other way; inactive = flat fitted curve, though single readings scatter. Potencies beside an inconclusive call are fits to weak or partial responses and may not hold up.

Assay: qHTS assay for MDR1-selective chemotherapeutics: Primary screen using the drug-selected MDR subline cells KB-V1; note: nearly all actives have a fitted effect of over 60% in size
Details: KB-V1 MDR cells viability, CellTiter-Glo, 72 h; activity change, negative = cytotoxicity: at 46.1 µM (top of the series)
Method in brief: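 Drug-selected KB-V1 cells, grown in DMEM lacking phenol red with 10% FBS, receive compound titrations; after three days at 37 degrees C, surviving cell ATP is quantified by CellTiter-Glo luminescence and responses normalized and curve-fitted.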
% is set by controls: 0 for no effect and ±100 for the full control effect; potency is the fitted concentration of half-maximal effect.

SMILES	Potency	activity change, negative = cytotoxicity
O=C(CN1C(=O)NC2(CCc3ccccc32)C1=O)c1ccc(Br)s1 (stereo not drawn)	inconclusive: 16.4 µM [cytotoxic, partial curve]	
O=C(NCCc1csc(-c2ccc(Cl)cc2)n1)c1ccco1	inactive	
COc1ccc(S(=O)(=O)N(Cc2ccccc2)c2ccccc2C(=O)Nc2ccccc2C(=O)NCc2ccco2)cc1	inconclusive: 16.4 µM [cytotoxic, partial curve]	
Cc1nc(/C=C/c2ccccc2)cc(/C=C/c2ccccc2)n1	inconclusive: 9.2 µM [cytotoxic, partial curve]	
CCOC(=O)c1cnc2ccccc2c1Nc1cccc(C(=O)O)c1		inactive: 2.56%
COc1ccc(/C=N\N2CCN(Cc3ccccc3Cl)CC2)cc1	inconclusive: 23.1 µM [cytotoxic, partial curve, poor fit]	
O=C(O)c1ccccc1-c1ccccc1C(=O)Nc1ccc(OC(F)(F)F)cc1	inconclusive: 0.103 µM [rising, full curve]	
COc1ccc(NC(=O)c2cnc(N3CCOCC3)c3ccccc23)cc1OC		inactive: -7.96%
Cc1ccn2c(c1)nc(=O)c1cc(S(=O)(=O)N3CCCCC3)ccc12	inconclusive: 11.6 µM [rising, partial curve]	
Cc1ccc(NC(=O)c2ccc(S(=O)(=O)N3CCC(C)CC3)cc2)nc1	inconclusive: 6.51 µM [cytotoxic, partial curve]	
CC(C)(CNC(=O)c1cccc(S(=O)(=O)Nc2ccc(Br)cc2)c1)N1CCOCC1	inconclusive: 14.6 µM [cytotoxic, partial curve]	
Cc1ccc(C(=O)COc2ccccc2C(=O)Nc2ccccc2)cc1	inconclusive: 16.4 µM [cytotoxic, partial curve, poor fit]	
CCN1C(=O)C(CC(=O)Nc2ccccc2)S/C1=N\c1ccccn1 (stereo not drawn)		inactive: -7.71%
Cc1ccc(C(C)C)c(OCC(=O)N/N=C2\CC(=O)CC(C)(C)C2)c1	inconclusive: 29.1 µM [rising, single point]	
O=C(NCc1ccccn1)C1CCCN(S(=O)(=O)c2ccc(Br)cc2)C1 (stereo not drawn)	inconclusive: 16.4 µM [cytotoxic, single point]	
O=C(c1cc(COc2cccc(C(F)(F)F)c2)on1)N1C[C@@H]2CCC[C@H]1C2	inconclusive: 23.1 µM [cytotoxic, single point]	
COCCCn1c(SC(C)C(=O)Nc2c(C)n(C)n(-c3ccccc3)c2=O)n[nH]c1=O (stereo not drawn)	inconclusive: 7.31 µM [rising, partial curve]	
CCC(NC(=O)c1cc(COc2ccc(F)c(F)c2)on1)c1ccncc1 (stereo not drawn)	inconclusive: 25.9 µM [cytotoxic, single point]	
O=C(Nc1ccc(S(=O)(=O)N2CCCC2)cc1)c1ccc2c(=O)n3c(nc2c1)CCCCC3		inactive: -0.581%
COC(=O)c1cc(CNC(=O)c2ccc(N3CCCC3)c([N+](=O)[O-])c2)ccc1OC	inconclusive: 32.6 µM [cytotoxic, single point]	
Cc1ccsc1C(=O)N(c1nc2ccccc2s1)c1c(C)cccc1C	inconclusive: 18.4 µM [cytotoxic, single point]	
Cc1cc(C)n2nc(CNS(=O)(=O)c3ccc(CC(C)C)cc3)nc2n1	inconclusive: 0.0103 µM [rising, full curve, poor fit]	
COc1cc(C2C3=C(COC3=O)Oc3cc4c(cc32)OCO4)cc(OC)c1O (stereo not drawn)	inconclusive: 0.0092 µM [cytotoxic, full curve, poor fit]	

SMILES	Potency	activity change, negative = cytotoxicity
CCOc1ccc2nc3c(cc2c1)CN(CCOC)C(=NCCOC)S3	inconclusive: 23.1 µM [cytotoxic, single point]	
CCN1CCN(C(=O)NCc2ccccc2)CC1	inconclusive: 29.1 µM [rising, single point]	
CCN(C(=O)COC(=O)/C=C/c1ccc(S(=O)(=O)N2CCc3ccccc32)cc1)C1CCS(=O)(=O)C1 (stereo not drawn)		inactive: 1.52%
CC(C)CNC(=O)c1cc([N+](=O)[O-])ccc1N1CCOCC1		inactive: -28%
COc1cccc(N2CCN(CC(=O)Nc3nc4c(s3)CC(C)CC4)CC2)c1 (stereo not drawn)	active: 18.4 µM	
COc1ccc(C(=O)Nn2c(SCC(=O)NCc3ccco3)nc3ccccc3c2=O)cc1	inconclusive: 23.1 µM [cytotoxic, single point]	
CCOc1ccc(N(CC(=O)NCCSCc2ccccc2Cl)S(C)(=O)=O)cc1	inconclusive: 0.731 µM [cytotoxic, full curve]	
COc1ccc(/C=N/Nc2cc(OC)ncn2)cc1		inactive: 0.949%
Cn1nnnc1SCC(=O)Nc1cc(S(=O)(=O)N2CCCCC2)ccc1Cl		inactive: 7.11%
Cc1ccc(S(=O)(=O)N(C)C)cc1NC(=O)CN1CCN(Cc2ccccc2)CC1	inconclusive: 7.31 µM [cytotoxic, partial curve]	
COc1cc2c(cc1OC)CN(c1ccc(C(F)(F)F)cn1)CC2	inconclusive: 23.1 µM [rising, partial curve, poor fit]	
COc1ccc(-c2nc3ccccc3n2Cc2ccc(C(C)C)cc2)cc1	inconclusive: 8.2 µM [cytotoxic, partial curve]	
CC1CN(CC(O)COc2ccccc2C(C)(C)C)CC(C)O1 (stereo not drawn)	inconclusive: 8.2 µM [cytotoxic, partial curve]	
Cc1c(C(=O)N/N=C/c2ccncc2)no[n+]1[O-]	inconclusive: 29.1 µM [rising, single point]	
COc1ccc(-n2c(=O)c3c4c(sc3n(CC(=O)Nc3cc(C)[nH]n3)c2=O)CCC4)c(OC)c1		inactive: 6.86%
CC(C)(C)c1csc(N/N=C/c2cccnc2)n1	inconclusive: 20.6 µM [cytotoxic, partial curve]	
Cc1ccc(CNC(=O)C(=O)NCCC2CCCCN2S(=O)(=O)c2ccccc2)cc1 (stereo not drawn)	inconclusive: 7.31 µM [cytotoxic, partial curve]	
Cn1c(=O)c2c(nc(CN3CCCCC3)n2CCc2ccccc2)n(C)c1=O	inconclusive: 10.3 µM [cytotoxic, partial curve]	
Cn1c(SCC(=O)O)nnc1-c1cccc(NC(=O)c2cccc3ccccc23)c1		inactive: 19.8%
CN(C)/C=C/c1c([N+](=O)[O-])c2ccc(O)cc2n1-c1ccccc1		inactive: -20.8%
COc1ccc(Cl)cc1NC(=O)CN(C)C(=O)c1cc2c(s1)CCC(C)C2 (stereo not drawn)	inconclusive: 11.6 µM [cytotoxic, partial curve]	
Cc1ccc(NC(=O)c2cc(S(=O)(=O)N3CCCCC3)cs2)cc1	active: 14.6 µM	
O=C(NNC(=S)Nc1ccccc1)c1cc(Br)ccc1Cl		inactive: -26.4%

As a short view, 19 of the compounds above.
SMILES	Potency	activity change, negative = cytotoxicity
COc1cccc(N2CCN(CC(=O)Nc3nc4c(s3)CC(C)CC4)CC2)c1 (stereo not drawn)	active: 18.4 µM	
COc1ccc(C(=O)Nn2c(SCC(=O)NCc3ccco3)nc3ccccc3c2=O)cc1	inconclusive: 23.1 µM [cytotoxic, single point]	
CCOc1ccc(N(CC(=O)NCCSCc2ccccc2Cl)S(C)(=O)=O)cc1	inconclusive: 0.731 µM [cytotoxic, full curve]	
COc1ccc(/C=N/Nc2cc(OC)ncn2)cc1		inactive: 0.949%
Cn1nnnc1SCC(=O)Nc1cc(S(=O)(=O)N2CCCCC2)ccc1Cl		inactive: 7.11%
Cc1ccc(S(=O)(=O)N(C)C)cc1NC(=O)CN1CCN(Cc2ccccc2)CC1	inconclusive: 7.31 µM [cytotoxic, partial curve]	
COc1cc2c(cc1OC)CN(c1ccc(C(F)(F)F)cn1)CC2	inconclusive: 23.1 µM [rising, partial curve, poor fit]	
COc1ccc(-c2nc3ccccc3n2Cc2ccc(C(C)C)cc2)cc1	inconclusive: 8.2 µM [cytotoxic, partial curve]	
CC1CN(CC(O)COc2ccccc2C(C)(C)C)CC(C)O1 (stereo not drawn)	inconclusive: 8.2 µM [cytotoxic, partial curve]	
Cc1c(C(=O)N/N=C/c2ccncc2)no[n+]1[O-]	inconclusive: 29.1 µM [rising, single point]	
COc1ccc(-n2c(=O)c3c4c(sc3n(CC(=O)Nc3cc(C)[nH]n3)c2=O)CCC4)c(OC)c1		inactive: 6.86%
CC(C)(C)c1csc(N/N=C/c2cccnc2)n1	inconclusive: 20.6 µM [cytotoxic, partial curve]	
Cc1ccc(CNC(=O)C(=O)NCCC2CCCCN2S(=O)(=O)c2ccccc2)cc1 (stereo not drawn)	inconclusive: 7.31 µM [cytotoxic, partial curve]	
Cn1c(=O)c2c(nc(CN3CCCCC3)n2CCc2ccccc2)n(C)c1=O	inconclusive: 10.3 µM [cytotoxic, partial curve]	
Cn1c(SCC(=O)O)nnc1-c1cccc(NC(=O)c2cccc3ccccc23)c1		inactive: 19.8%
CN(C)/C=C/c1c([N+](=O)[O-])c2ccc(O)cc2n1-c1ccccc1		inactive: -20.8%
COc1ccc(Cl)cc1NC(=O)CN(C)C(=O)c1cc2c(s1)CCC(C)C2 (stereo not drawn)	inconclusive: 11.6 µM [cytotoxic, partial curve]	
Cc1ccc(NC(=O)c2cc(S(=O)(=O)N3CCCCC3)cs2)cc1	active: 14.6 µM	
O=C(NNC(=S)Nc1ccccc1)c1cc(Br)ccc1Cl		inactive: -26.4%

Continued:

SMILES	Potency	activity change, negative = cytotoxicity
O=C(N1CCOCC1)C12CC3CC(C1)CC(c1ccccc1)(C3)C2	inconclusive: 35.5 µM [cytotoxic, single point]	
c1cc(Nc2ncnc3sc4c(c23)CCC4)ccn1		inactive: 15.2%
Cc1cc(C(=O)NNC(=O)c2ccccc2[N+](=O)[O-])c(C)o1		inactive: 19.4%
COc1ccc(CCNC(=O)C(=O)NCC(c2ccco2)S(=O)(=O)c2cccs2)cc1 (stereo not drawn)		inactive: 0.872%
Cc1ccccc1NC(=O)CN1CCC(C(=O)c2ccc3c(c2)OCCO3)CC1	inconclusive: 3.26 µM [cytotoxic, full curve, poor fit]	
CCOc1ccc(-c2cn(-c3ccc(OC)cc3)c(SC)n2)cc1	inconclusive: 0.259 µM [cytotoxic, full curve, poor fit]	
COc1ccc2nc(SCC(=O)NC(C)(C)C)[nH]c2c1		inactive: 1.11%
Cc1ccc(-c2cc(C(=O)NCCCN3CCOCC3)no2)cc1	inconclusive: 16.4 µM [cytotoxic, single point]	
COc1ccc(N2C(=O)CS/C2=N\C(=S)Nc2ccccc2)cc1	inconclusive: 32.6 µM [rising, single point]	
CCOc1ccc(N(CC(=O)Nc2ccccc2C)S(=O)(=O)c2c(C)[nH]c(=O)[nH]c2=O)cc1	inconclusive: 10.3 µM [rising, partial curve, poor fit]	
COc1ccc(-c2cc(NC(C)=O)c3ncc(-c4ccc(OC)c(OC)c4)n3c2)c(OC)c1	inconclusive: 29.1 µM [cytotoxic, single point]	
O=C(NC(=S)N(CCO)Cc1ccccc1)c1ccc(F)cc1Cl		inactive: 0.313%
Cc1c(Cl)cccc1NC(=O)c1cc(-c2cccc(Cl)c2)on1	inconclusive: 29.1 µM [rising, single point]	
CC(C)NC(=O)c1ccc(COc2cc(Cl)ccc2Cl)o1		inactive: -4.08%
COc1cc2c(C(=O)N3CCN(c4cccc(Cl)c4)CC3)cn(C)c(=O)c2cc1OC	inconclusive: 20.6 µM [cytotoxic, single point] and inconclusive: 18.4 µM [cytotoxic, single point]	
O=C(CN1C(=O)c2cccnc2Oc2ccc(Cl)cc21)NCCCN1CCCCC1		inactive: 11.6%
CCOC(=O)c1sc(NC(=O)CSc2nnc(Cc3ccccc3)o2)c(C(=O)OCC)c1C	active: 7.31 µM	
CC(=O)c1ccc(S(=O)(=O)N2CCN(c3nc4c(C)c(C)ccc4cc3C#N)CC2)cc1	inconclusive: 7.94 µM [cytotoxic, partial curve]	
O=C(Nc1cccc(Br)c1)Nc1nc2c(s1)CCCCCC2	inconclusive: 20.6 µM [cytotoxic, single point]	
CCOc1ccc(OCCC(=O)N(CC)CC(=O)NCc2cccs2)cc1		inactive: 1.47%
Cc1ccccc1NC(=O)Cc1nc(COC(=O)Cc2ccccc2F)cs1	inconclusive: 29.1 µM [rising, single point]	
O=C(Cn1c(=O)oc2cc(S(=O)(=O)N3CCCC3)ccc21)N1CCCC1	inconclusive: 4.11 µM [rising, full curve]	
